Assay results taken from publication doi:10.1101/2023.09.28.560023.
These are yes or no findings as the source states them, for the method shown. In cells and extracts the contact can be indirect. Some entries that bind do so weakly or less than the wild type.

The chains behind the UniProt entries cited, without tags or fusion partners. Where a name states a change or a piece, a line headed by the entry shows the natural chain unless it says otherwise. A line that says so, or that is headed by a name, gives the form on record, which may keep a tag or linker.
Spy3-Ago2 (Ago2 with SpyTag3, from the Cre-recombined conditional cSpy3-Ago2 allele) (Q8CJG0, form named): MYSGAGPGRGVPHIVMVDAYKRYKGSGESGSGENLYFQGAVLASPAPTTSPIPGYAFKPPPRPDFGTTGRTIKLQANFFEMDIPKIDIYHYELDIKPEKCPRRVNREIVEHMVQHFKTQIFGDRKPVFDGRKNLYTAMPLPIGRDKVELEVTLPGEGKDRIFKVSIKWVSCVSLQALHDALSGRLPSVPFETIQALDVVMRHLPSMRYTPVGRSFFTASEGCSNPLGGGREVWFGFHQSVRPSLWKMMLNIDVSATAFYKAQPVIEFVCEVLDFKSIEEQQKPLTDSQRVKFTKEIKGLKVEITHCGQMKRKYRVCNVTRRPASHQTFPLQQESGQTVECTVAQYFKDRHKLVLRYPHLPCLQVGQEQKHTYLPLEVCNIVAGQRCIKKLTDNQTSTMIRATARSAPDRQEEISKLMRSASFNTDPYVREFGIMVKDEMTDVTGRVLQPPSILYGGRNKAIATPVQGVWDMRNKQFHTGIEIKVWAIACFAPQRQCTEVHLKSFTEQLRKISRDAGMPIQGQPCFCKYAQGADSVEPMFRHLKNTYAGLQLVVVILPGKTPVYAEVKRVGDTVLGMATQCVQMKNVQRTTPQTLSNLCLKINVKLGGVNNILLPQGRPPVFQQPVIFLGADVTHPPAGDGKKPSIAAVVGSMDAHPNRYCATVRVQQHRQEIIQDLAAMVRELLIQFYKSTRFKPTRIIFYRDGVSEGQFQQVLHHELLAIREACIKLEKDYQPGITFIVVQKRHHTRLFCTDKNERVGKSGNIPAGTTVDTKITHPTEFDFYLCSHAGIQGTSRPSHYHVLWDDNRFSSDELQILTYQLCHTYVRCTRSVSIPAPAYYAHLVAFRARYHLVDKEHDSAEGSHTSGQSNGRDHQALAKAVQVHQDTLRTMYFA

Target: HaloTag-linker-SpyCatcher3
Assay: pull-down

binding: binds
Substance: Spy3-Ago2 (Ago2 with SpyTag3, from the Cre-recombined conditional cSpy3-Ago2 allele) (from UniProt Q8CJG0 1-7; Q8CJG0 8-860)
